Laboratory results from paper PMC6663880.
These are yes or no findings as the source states them, for the method shown. In cells and extracts the contact can be indirect. Here binding means that the protein was enriched with, or labelled near, the bait; the list need not be complete. Tags and fused reporters may be left off the sequences shown.

By UniProt entry, the sequences of proteins in these tests, tags left out. Where a name states a change or a piece, a line headed by the entry shows the natural chain unless it says otherwise.
UniProt P05556: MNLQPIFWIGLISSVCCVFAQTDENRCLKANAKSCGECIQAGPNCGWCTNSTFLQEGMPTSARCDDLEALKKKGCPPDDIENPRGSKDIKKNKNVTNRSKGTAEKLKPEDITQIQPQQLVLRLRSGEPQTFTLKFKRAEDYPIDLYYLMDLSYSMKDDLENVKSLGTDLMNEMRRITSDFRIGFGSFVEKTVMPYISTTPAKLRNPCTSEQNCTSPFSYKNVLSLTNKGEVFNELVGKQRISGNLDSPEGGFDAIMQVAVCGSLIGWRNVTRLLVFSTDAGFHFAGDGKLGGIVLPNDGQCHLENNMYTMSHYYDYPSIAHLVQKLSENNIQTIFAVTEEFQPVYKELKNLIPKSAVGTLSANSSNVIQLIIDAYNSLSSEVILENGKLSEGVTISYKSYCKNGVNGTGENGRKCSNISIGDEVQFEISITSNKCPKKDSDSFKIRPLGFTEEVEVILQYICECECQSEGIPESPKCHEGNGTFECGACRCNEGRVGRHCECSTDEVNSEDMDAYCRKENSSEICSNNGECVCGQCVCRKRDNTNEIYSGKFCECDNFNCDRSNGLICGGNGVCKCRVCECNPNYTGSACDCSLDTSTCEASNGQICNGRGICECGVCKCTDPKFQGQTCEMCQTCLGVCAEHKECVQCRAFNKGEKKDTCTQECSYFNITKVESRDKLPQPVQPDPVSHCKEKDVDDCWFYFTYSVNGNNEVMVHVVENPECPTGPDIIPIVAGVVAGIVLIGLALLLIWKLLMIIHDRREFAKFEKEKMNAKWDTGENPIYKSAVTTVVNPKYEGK
UniProt P51648: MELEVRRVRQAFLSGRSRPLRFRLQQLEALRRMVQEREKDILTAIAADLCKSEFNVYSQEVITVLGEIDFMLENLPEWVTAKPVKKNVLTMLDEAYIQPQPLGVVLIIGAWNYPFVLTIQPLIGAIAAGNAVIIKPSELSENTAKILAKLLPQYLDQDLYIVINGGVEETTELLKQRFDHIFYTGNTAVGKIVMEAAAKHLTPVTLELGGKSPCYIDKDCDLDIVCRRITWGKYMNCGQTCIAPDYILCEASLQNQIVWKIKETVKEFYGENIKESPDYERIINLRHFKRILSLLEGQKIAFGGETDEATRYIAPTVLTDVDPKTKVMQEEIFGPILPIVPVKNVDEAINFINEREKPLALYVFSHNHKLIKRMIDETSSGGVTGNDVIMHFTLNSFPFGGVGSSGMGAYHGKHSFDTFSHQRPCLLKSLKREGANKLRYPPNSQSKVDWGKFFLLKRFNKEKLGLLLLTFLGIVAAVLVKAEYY
UniProt O95292: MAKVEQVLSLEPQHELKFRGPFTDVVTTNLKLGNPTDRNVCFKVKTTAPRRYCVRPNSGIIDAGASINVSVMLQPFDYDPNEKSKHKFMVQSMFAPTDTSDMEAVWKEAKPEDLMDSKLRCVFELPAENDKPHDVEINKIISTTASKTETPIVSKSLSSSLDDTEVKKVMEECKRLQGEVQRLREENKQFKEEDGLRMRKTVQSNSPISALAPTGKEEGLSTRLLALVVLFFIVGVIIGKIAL

T1: RHBDL4mycBirA* (human) (UniProt Q8TEB9)
T1 sequence: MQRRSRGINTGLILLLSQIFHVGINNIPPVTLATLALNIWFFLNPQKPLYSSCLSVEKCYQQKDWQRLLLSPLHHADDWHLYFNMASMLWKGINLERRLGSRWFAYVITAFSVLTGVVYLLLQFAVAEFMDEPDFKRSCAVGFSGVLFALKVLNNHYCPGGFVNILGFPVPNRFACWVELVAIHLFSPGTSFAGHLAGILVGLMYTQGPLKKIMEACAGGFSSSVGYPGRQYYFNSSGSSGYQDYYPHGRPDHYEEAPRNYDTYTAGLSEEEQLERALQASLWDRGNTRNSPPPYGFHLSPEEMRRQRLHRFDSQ

T2: mycBirA*iRhom2 (human) (UniProt Q6PJF5)
T2 sequence: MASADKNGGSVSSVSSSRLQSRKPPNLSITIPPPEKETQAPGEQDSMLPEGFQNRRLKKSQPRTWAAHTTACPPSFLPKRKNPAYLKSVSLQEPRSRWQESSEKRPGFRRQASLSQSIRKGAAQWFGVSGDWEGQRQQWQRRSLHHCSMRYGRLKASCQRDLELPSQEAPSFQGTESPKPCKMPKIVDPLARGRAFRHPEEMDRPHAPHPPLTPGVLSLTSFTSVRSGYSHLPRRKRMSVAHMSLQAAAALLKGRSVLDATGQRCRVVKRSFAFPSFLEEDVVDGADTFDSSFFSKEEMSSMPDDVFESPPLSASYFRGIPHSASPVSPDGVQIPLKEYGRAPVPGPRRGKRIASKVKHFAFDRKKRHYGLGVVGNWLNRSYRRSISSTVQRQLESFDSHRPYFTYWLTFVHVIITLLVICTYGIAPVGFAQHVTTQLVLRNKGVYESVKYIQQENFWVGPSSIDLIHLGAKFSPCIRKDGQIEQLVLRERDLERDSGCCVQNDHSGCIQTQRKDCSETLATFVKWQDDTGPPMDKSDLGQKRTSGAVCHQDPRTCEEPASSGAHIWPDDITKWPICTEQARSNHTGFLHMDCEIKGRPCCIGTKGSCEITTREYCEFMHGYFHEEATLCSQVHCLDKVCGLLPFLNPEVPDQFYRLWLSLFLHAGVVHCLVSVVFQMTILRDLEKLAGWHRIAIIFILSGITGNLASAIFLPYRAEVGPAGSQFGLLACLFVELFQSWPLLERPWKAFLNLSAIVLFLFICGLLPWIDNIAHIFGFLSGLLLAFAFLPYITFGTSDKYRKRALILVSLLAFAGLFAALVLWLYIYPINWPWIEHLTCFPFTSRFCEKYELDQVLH

B1: VCPIP1 (protein, UniProt Q96JH7 1-1222)
chain: MSQPPPPPPPLPPPPPPPEAPQTPSSLASAAASGGLLKRRDRRILSGSCPDPKCQARLFFPASGSVSIECTECGQRHEQQQLLGVEEVTDPDVVLHNLLRNALLGVTGAPKKNTELVKVMGLSNYHCKLLSPILARYGMDKQTGRAKLLRDMNQGELFDCALLGDRAFLIEPEHVNTVGYGKDRSGSLLYLHDTLEDIKRANKSQECLIPVHVDGDGHCLVHAVSRALVGRELFWHALRENLKQHFQQHLARYQALFHDFIDAAEWEDIINECDPLFVPPEGVPLGLRNIHIFGLANVLHRPIILLDSLSGMRSSGDYSATFLPGLIPAEKCTGKDGHLNKPICIAWSSSGRNHYIPLVGIKGAALPKLPMNLLPKAWGVPQDLIKKYIKLEEDGGCVIGGDRSLQDKYLLRLVAAMEEVFMDKHGIHPSLVADVHQYFYRRTGVIGVQPEEVTAAAKKAVMDNRLHKCLLCGALSELHVPPEWLAPGGKLYNLAKSTHGQLRTDKNYSFPLNNLVCSYDSVKDVLVPDYGMSNLTACNWCHGTSVRKVRGDGSIVYLDGDRTNSRSTGGKCGCGFKHFWDGKEYDNLPEAFPITLEWGGRVVRETVYWFQYESDSSLNSNVYDVAMKLVTKHFPGEFGSEILVQKVVHTILHQTAKKNPDDYTPVNIDGAHAQRVGDVQGQESESQLPTKIILTGQKTKTLHKEELNMSKTERTIQQNITEQASVMQKRKTEKLKQEQKGQPRTVSPSTIRDGPSSAPATPTKAPYSPTTSKEKKIRITTNDGRQSMVTLKSSTTFFELQESIAREFNIPPYLQCIRYGFPPKELMPPQAGMEKEPVPLQHGDRITIEILKSKAEGGQSAAAHSAHTVKQEDIAVTGKLSSKELQEQAEKEMYSLCLLATLMGEDVWSYAKGLPHMFQQGGVFYSIMKKTMGMADGKHCTFPHLPGKTFVYNASEDRLELCVDAAGHFPIGPDVEDLVKEAVSQVRAEATTRSRESSPSHGLLKLGSGGVVKKKSEQLHNVTAFQGKGHSLGTASGNPHLDPRARETSVVRKHNTGTDFSNSSTKTEPSVFTASSSNSELIRIAPGVVTMRDGRQLDPDLVEAQRKKLQEMVSSIQASMDRHLRDQSTEQSPSDLPQRKTEVVSSSAKSGSLQTGLPESFPLTGGTENLNTETTDGCVADALGAAFATRSKAQRGNSVEELEEMDSQDAEMTNTTEPMDHS
B2: UBXN4 (protein, UniProt Q92575 1-508)
chain: MLWFQGAIPAAIATAKRSGAVFVVFVAGDDEQSTQMAASWEDDKVTEASSNSFVAIKIDTKSEACLQFSQIYPVVCVPSSFFIGDSGIPLEVIAGSVSADELVTRIHKVRQMHLLKSETSVANGSQSESSVSTPSASFEPNNTCENSQSRNAELCEIPPTSDTKSDTATGGESAGHATSSQEPSGCSDQRPAEDLNIRVERLTKKLEERREEKRKEEEQREIKKEIERRKTGKEMLDYKRKQEEELTKRMLEERNREKAEDRAARERIKQQIALDRAERAARFAKTKEEVEAAKAAALLAKQAEMEVKRESYARERSTVARIQFRLPDGSSFTNQFPSDAPLEEARQFAAQTVGNTYGNFSLATMFPRREFTKEDYKKKLLDLELAPSASVVLLPAGRPTASIVHSSSGDIWTLLGTVLYPFLAIWRLISNFLFSNPPPTQTSVRVTSSEPPNPASSSKSEKREPVRKRVLEKRGDDFKKEGKIYRLRTQDDGEDENNTWNGNSTQQM
B3: TRIM13 (protein, UniProt O60858 1-407)
chain: MELLEEDLTCPICCSLFDDPRVLPCSHNFCKKCLEGILEGSVRNSLWRPAPFKCPTCRKETSATGINSLQVNYSLKGIVEKYNKIKISPKMPVCKGHLGQPLNIFCLTDMQLICGICATRGEHTKHVFCSIEDAYAQERDAFESLFQSFETWRRGDALSRLDTLETSKRKSLQLLTKDSDKVKEFFEKLQHTLDQKKNEILSDFETMKLAVMQAYDPEINKLNTILQEQRMAFNIAEAFKDVSEPIVFLQQMQEFREKIKVIKETPLPPSNLPASPLMKNFDTSQWEDIKLVDVDKLSLPQDTGTFISKIPWSFYKLFLLILLLGLVIVFGPTMFLEWSLFDDLATWKGCLSNFSSYLTKTADFIEQSVFYWEQVTDGFFIFNERFKNFTLVVLNNVAEFVCKYKLL
B4: LAP2B (protein, UniProt P42167 1-454)
chain: MPEFLEDPSVLTKDKLKSELVANNVTLPAGEQRKDVYVQLYLQHLTARNRPPLPAGTNSKGPPDFSSDEEREPTPVLGSGAAAAGRSRAAVGRKATKKTDKPRQEDKDDLDVTELTNEDLLDQLVKYGVNPGPIVGTTRKLYEKKLLKLREQGTESRSSTPLPTISSSAENTRQNGSNDSDRYSDNEEDSKIELKLEKREPLKGRAKTPVTLKQRRVEHNQSYSQAGITETEWTSGSSKGGPLQALTRESTRGSRRTPRKRVETSEHFRIDGPVISESTPIAETIMASSNESLVVNRVTGNFKHASPILPITEFSDIPRRAPKKPLTRAEVGEKTEERRVERDILKEMFPYEASTPTGISASCRRPIKGAAGRPLELSDFRMEESFSSKYVPKYVPLADVKSEKTKKGRSIPVWIKILLFVVVAVFLFLVYQAMETNQVNPFSNFLHVDPRKSN
B5: STX5 (protein, UniProt Q13190 1-355)
chain: MIPRKRYGSKNTDQGVYLGLSKTQVLSPATAGSSSSDIAPLPPPVTLVPPPPDTMSCRDRTQEFLSACKSLQTRQNGIQTNKPALRAVRQRSEFTLMAKRIGKDLSNTFAKLEKLTILAKRKSLFDDKAVEIEELTYIIKQDINSLNKQIAQLQDFVRAKGSQSGRHLQTHSNTIVVSLQSKLASMSNDFKSVLEVRTENLKQQRSRREQFSRAPVSALPLAPNHLGGGAVVLGAESHASKDVAIDMMDSRTSQQLQLIDEQDSYIQSRADTMQNIESTIVELGSIFQQLAHMVKEQEETIQRIDENVLGAQLDVEAAHSEILKYFQSVTSNRWLMVKIFLILIVFFIIFVVFLA
B6: PTP1B (protein-tyrosine phosphatase nonreceptor type 1) (enzyme, UniProt P18031 1-435)
chain: MEMEKEFEQIDKSGSWAAIYQDIRHEASDFPCRVAKLPKNKNRNRYRDVSPFDHSRIKLHQEDNDYINASLIKMEEAQRSYILTQGPLPNTCGHFWEMVWEQKSRGVVMLNRVMEKGSLKCAQYWPQKEEKEMIFEDTNLKLTLISEDIKSYYTVRQLELENLTTQETREILHFHYTTWPDFGVPESPASFLNFLFKVRESGSLSPEHGPVVVHCSAGIGRSGTFCLADTCLLLMDKRKDPSSVDIKKVLLEMRKFRMGLIQTADQLRFSYLAVIEGAKFIMGDSSVQDQWKELSHEDLEPPPEHIPPPPRPPKRILEPHNGKCREFFPNHQWVKEETQEDKDCPIKEEKGSPLNAAPYGIESMSQDTEVRSRVVGGSLRGAQAASPAKGEPSLPEKDEDHALSYWKPFLVNMCVATVLTAGAYLCYRFLFNSNT

Each molecule was assayed against T1, RHBDL4mycBirA* (human) (assay: proximity labelling; BioID: bait fused to mycBirA* stably expressed in HEK293 or HeLa cells, 50 μM biotin for 24 h, lysis in RIPA buffer, capture on streptavidin beads, MS; proteins found with mycBirA* alone excluded).

binding, binds:
ITGB1 (from UniProt P05556 21-798)
AL3A2 (from UniProt P51648 1-485)
VAPB (from UniProt O95292 1-243)
B1
B2
B3
B4
B5
B6

Each molecule was assayed against T2, mycBirA*iRhom2 (human) in the same assay as above.

binding, binds:
B6
